Results as given in PubChem BioAssay (NCATS).
“And” between values parts separate entries of the source, which are not always exact repeats. Equal values may be shown once. The inconclusive results got no clear call from the source; some entries with a clear call stand among them for comparison. For part of these data: A potency beside an inconclusive call is a rough fit, not a confirmed value. The source made the active and inactive calls. Unless noted, calls follow the shape of the dose curve; as a rule, active = well fitted curve in the direction sought with a large enough effect; inconclusive = small, poorly fitted or top-dose-only effect, or another doubt; inactive = no such curve, though single readings can be large; an effect the other way counts as inactive or inconclusive.

Protein sequences, listed by entry. Tags and fused reporters are not part of them. Lines headed by an entry give the natural chain unless they say otherwise; changes in a name come on top.
UniProt O95398: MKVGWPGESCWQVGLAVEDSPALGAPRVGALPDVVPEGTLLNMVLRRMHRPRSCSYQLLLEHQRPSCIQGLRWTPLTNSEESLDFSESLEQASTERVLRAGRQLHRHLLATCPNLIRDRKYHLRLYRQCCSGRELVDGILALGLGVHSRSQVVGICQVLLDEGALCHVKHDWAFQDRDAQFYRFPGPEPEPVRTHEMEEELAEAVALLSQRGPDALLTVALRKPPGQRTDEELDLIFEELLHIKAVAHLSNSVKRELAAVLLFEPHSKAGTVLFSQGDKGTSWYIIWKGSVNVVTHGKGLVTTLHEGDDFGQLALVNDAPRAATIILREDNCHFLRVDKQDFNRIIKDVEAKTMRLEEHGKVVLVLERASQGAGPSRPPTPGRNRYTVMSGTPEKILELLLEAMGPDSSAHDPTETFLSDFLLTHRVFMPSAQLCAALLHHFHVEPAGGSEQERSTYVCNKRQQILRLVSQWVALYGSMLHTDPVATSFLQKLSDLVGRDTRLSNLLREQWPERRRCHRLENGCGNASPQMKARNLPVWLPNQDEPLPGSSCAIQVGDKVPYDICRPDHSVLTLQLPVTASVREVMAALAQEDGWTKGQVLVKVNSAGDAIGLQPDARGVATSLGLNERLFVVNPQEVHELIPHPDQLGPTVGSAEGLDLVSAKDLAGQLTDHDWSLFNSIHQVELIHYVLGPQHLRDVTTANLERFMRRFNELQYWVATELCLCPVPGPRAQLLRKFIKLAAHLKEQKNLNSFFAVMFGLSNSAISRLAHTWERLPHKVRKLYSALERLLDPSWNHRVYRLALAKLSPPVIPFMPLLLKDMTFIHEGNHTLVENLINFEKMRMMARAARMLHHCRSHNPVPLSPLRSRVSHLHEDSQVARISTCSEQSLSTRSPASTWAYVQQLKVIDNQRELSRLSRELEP
UniProt O15297: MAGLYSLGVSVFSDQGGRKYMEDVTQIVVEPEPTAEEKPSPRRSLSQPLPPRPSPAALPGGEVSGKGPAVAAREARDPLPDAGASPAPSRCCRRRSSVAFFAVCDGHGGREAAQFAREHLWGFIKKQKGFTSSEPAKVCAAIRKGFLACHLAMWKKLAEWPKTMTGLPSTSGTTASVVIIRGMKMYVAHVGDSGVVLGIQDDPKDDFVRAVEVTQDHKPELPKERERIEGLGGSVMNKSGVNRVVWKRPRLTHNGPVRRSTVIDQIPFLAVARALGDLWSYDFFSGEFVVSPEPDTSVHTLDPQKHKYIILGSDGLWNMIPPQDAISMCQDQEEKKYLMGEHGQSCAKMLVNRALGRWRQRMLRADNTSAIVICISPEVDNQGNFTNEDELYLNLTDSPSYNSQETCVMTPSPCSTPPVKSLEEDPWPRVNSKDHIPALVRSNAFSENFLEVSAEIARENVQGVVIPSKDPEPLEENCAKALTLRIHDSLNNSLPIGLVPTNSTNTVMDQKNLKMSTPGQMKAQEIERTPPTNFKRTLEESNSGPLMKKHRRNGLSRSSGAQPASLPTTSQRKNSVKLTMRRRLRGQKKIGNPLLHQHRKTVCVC
UniProt Q8WZA2: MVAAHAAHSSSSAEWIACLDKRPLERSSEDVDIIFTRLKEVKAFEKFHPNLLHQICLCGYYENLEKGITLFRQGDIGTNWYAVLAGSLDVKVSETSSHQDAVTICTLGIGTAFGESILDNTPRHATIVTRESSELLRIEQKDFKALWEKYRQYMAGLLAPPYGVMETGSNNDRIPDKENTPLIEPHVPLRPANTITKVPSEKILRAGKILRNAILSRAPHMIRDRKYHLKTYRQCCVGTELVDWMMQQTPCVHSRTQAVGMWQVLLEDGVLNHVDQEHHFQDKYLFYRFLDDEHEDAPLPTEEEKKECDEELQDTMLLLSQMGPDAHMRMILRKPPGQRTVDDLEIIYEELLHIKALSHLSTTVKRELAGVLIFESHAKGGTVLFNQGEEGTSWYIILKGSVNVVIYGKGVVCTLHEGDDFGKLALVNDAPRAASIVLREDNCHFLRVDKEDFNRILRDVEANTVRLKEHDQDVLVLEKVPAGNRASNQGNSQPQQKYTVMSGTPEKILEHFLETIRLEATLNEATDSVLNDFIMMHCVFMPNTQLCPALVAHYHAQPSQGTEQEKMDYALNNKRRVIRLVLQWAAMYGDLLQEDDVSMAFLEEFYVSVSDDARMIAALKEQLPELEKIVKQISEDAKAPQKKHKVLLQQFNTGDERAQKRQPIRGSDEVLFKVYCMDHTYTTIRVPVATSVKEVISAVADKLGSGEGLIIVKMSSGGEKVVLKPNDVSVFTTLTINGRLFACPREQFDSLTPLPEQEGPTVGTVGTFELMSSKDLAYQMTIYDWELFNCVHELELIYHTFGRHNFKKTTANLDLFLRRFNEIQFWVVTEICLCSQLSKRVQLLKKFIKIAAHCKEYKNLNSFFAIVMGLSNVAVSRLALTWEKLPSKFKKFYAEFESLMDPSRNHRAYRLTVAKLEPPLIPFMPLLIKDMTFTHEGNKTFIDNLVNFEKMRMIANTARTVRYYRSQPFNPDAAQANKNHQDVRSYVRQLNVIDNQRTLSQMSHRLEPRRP
UniProt P51449: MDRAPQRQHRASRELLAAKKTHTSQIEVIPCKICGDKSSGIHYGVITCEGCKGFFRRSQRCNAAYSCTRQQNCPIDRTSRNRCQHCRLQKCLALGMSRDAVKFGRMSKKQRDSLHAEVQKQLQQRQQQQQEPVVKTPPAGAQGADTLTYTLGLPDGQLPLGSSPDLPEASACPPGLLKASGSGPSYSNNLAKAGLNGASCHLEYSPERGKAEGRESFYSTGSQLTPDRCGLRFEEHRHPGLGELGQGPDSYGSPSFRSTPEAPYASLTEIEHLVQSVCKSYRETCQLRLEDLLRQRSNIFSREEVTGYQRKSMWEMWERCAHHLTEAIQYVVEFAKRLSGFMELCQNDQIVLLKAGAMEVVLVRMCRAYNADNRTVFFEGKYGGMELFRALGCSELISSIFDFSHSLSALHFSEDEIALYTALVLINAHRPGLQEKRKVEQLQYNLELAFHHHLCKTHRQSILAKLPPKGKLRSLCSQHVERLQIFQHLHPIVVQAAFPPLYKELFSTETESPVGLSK

Tests used:
[1] = target: Rap guanine nucleotide exchange factor 3 (Homo sapiens) (UniProt O95398); assay: Counterscreen qHTS for agonist of cAMP-regulated guanine nucleotide exchange factor 3 (EPAC1) (AID 1645889); settings: EPAC1 Rap1B-BODIPY-GDP exchange, fluorescence; activation: at 154 µM (top of the series); also: potency is read from the fitted curve at half-maximal effect; nearly all actives have a fitted effect of over 40% in size
In short: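 Rap1B-BODIPY-GDP 250 nM + GDP 50 uM; cpds 7-pt, final 9.74 nM–152 uM (activator mode) or from 7.32 nM upwards (inhibitor mode); RT; FI 480/540 nm at 5 and 30 min, then ± cAMP, reread.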

[2] = Confirmatory screen NINDS Rhodamine qHTS for Zika virus inhibitors (AID 1347161); settings: purified enzyme assay, Rhodamine110 substrate fluorescence, 15 min; series mostly up to 114 µM; also: potency is read from the fitted curve at half-maximal effect; nearly all actives have a fitted effect of over 60% in size
In short: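 Rhodamine110-peptide cleavage (1.5 µM substrate) by 25 nM linked NS2B-NS3 enzyme at pH 8.0 (Tris, Tween 20), after 15 min RT preincubation with compounds; 15-min fluorescence change normalized to controls and Hill-fitted.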

[3] = target: Protein phosphatase 1D (Homo sapiens) (UniProt O15297); assay: RapidFire Mass Spectrometry qHTS Assay for Modulators of WT P53-Induced Phosphatase 1 (WIP1) (AID 1347424); settings: WIP1 dephosphorylation of phosphopeptide, RapidFire MS; series mostly up to 63 µM;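 also: amount of dephosphorylated VEPPL-S-QETFS peptide product formed by WIP1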; also: potency is read from the fitted curve at half-maximal effect;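 as to activity change, negative = inhibition: plate controls were DMSO wells for no effect and GSK830371 inhibitor control at 10 µM for full effect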
In short: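 10 nM WIP1 + cpd, 1 h RT; + 2 uM VEPPL-pS-QETFS, 5 min RT; stop 0.5% formic acid; labelled product standard 1 uM; RapidFire MS. Buffer 50 mM Tris pH 7.5, 30 mM MgCl2, 1 mM TCEP.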

[4] = target: Rap guanine nucleotide exchange factor 4 (Homo sapiens) (UniProt Q8WZA2); assay: Confirmatory qHTS for antagonist of cAMP-regulated guanine nucleotide exchange factor 4 (EPAC2) (AID 1645885); settings: EPAC2 Rap1B-BODIPY-GDP exchange fluorescence, biochemical; series mostly up to 114 µM; also: potency is read from the fitted curve at half-maximal effect; nearly all actives have a fitted effect of over 25% in size
[5] = target: Mitogen-activated protein kinase 10 (Mus musculus) (UniProt Q61831); assay: JNK3 AlphaScreen Assay (AID 530; active = well fitted curve in either direction with a large enough effect, not every such curve was filed as active; inconclusive = small, poorly fitted or top-dose-only effect, or another doubt;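 also: kinase came from lysate of stimulated human HepG2 cells; signal reports phosphorylation of biotinylated GST-cJun 1-79 at Ser73 with 10 µM ATP; % is scaled to controls: 0 for no effect and ±100 for the full control effect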); settings: JNK3 lysate, c-Jun phosphorylation; activity change, negative = inhibition: at 57.1 µM (top of the series)
In short: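 Room-temperature AlphaScreen kinase assay; pre-activated HepG2 lysate as JNK3 source, biotin-GST-cJun(1-79) substrate, 10 uM ATP, compound 15 min preincubation.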

[6] = qHTS of pediatric cancer cell lines to identify multiple opportunities for drug repurposing: Confirmatory screen for NB1643 cells (AID 1347109); settings: NB1643 neuroblastoma cell viability; series mostly up to 45.9 µM; also: nearly all actives have a fitted effect of over 45% in size; also: potency is read from the fitted curve at half-maximal effect;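 as to activity change, negative = cytotoxic: plate controls were DMSO for no effect and bortezomib for full effect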
In short: (§1)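 Cells (500-1,000/well) rested 5 h, then received compounds for 48 h; metabolically active cells were measured by CellTiter-Glo luminescence. Final concentrations spanned up to 46 µM (MIPE, 11-point) or 0.59 nM-46 µM (NPC, 8-point) in primary screens, 11-point in follow-ups.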

[7] = qHTS of pediatric cancer cell lines to identify multiple opportunities for drug repurposing: Confirmatory screen for SJ-GBM2 cells (AID 1347116); settings: SJ-GBM2 glioblastoma cells, viability; series mostly up to 45.9 µM; also: nearly all actives have a fitted effect of over 60% in size; also: potency is read from the fitted curve at half-maximal effect;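 as to activity change, negative = cytotoxic: plate controls were DMSO for no effect and bortezomib for full effect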
In short: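 Viability measured as metabolically active cells via CellTiter-Glo luminescence following 48 hours of compound exposure, 11-point dilutions in confirmatory testing. 500-1,000 cells/well plated 5 hours before dosing; controls were DMSO and 2.3 µM bortezomib.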

[8] = qHTS of pediatric cancer cell lines to identify multiple opportunities for drug repurposing: Confirmatory screen for BT-37 cells (AID 1347117); settings: BT-37 pediatric cancer cells, viability; series mostly up to 45.9 µM; also: potency is read from the fitted curve at half-maximal effect; nearly all actives have a fitted effect of over 55% in size
In short: as §1

[9] = qHTS of pediatric cancer cell lines to identify multiple opportunities for drug repurposing: Confirmatory screen for control Hh wild type fibroblast cells (AID 1347121); settings: viability qHTS; series mostly up to 45.9 µM; also: potency is read from the fitted curve at half-maximal effect; nearly all actives have a fitted effect of over 70% in size
In short: as §1

[10] = qHTS of pediatric cancer cell lines to identify multiple opportunities for drug repurposing: Confirmatory screen for Rh41 cells (AID 1347123); settings: Rh41 rhabdomyosarcoma cells, viability/cytotoxicity qHTS; series mostly up to 45.9 µM;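 also: potency is read from the fitted curve at half-maximal effect; 48 h compound exposure; nearly all actives have a fitted effect of over 60% in size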
In short: as §1

[11] = qHTS of pediatric cancer cell lines to identify multiple opportunities for drug repurposing: Confirmatory screen for RD cells (AID 1347124); settings: RD rhabdomyosarcoma cell viability; activity change, negative = cytotoxic: at 45.9 µM (top of the series) unless noted;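 also: cells exposed to compound for 48 h before viability readout; nearly all actives have a fitted effect of over 65% in size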; also: potency is read from the fitted curve at half-maximal effect; as to activity change, negative = cytotoxic: % is scaled to controls: 0 for no effect and ±100 for the full control effect
In short: as §1

[12] = qHTS of pediatric cancer cell lines to identify multiple opportunities for drug repurposing: Confirmatory screen for OHS-50 cells (AID 1347128); settings: OHS-50 osteosarcoma cells viability; series mostly up to 45.9 µM;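 also: potency is read from the fitted curve at half-maximal effect; compound exposure lasted 48 h at 37 degrees C; nearly all actives have a fitted effect of over 55% in size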
In short: as §1

[13] = qHTS assay to identify inhibitors of the type 1 interferon - major histocompatibility complex class I in skeletal muscle: Counter screen cell viability and HiBit confirmation (AID 1347412); settings: iHSKM muscle cells + IFN-b, HiBiT or CellTiter-Glo, 24 h; also: nearly all actives have a fitted effect of over 60% in size; also: potency is read from the fitted curve at half-maximal effect; as to activity change, negative = inhibition: % is scaled to controls: 0 for no effect and ±100 for the full control effect
In short: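 HLA-B*08:01–HiBiT knock-in immortalized human myoblasts (C25cl48) stimulated with 4.0 ng/ml human IFN-beta and dosed with compound in a 12-point 1:3 titration (top final 46 uM). After 24 hrs at 37 C, HiBiT lytic luminescence or CellTiter Glo ATP read out.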

[14] = Cell Viability - Renal Proximal Tubule (AID 545); settings: renal proximal tubule cells viability, primary cells of rat origin; at 91.7 µM (top of the series);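 also: cells exposed to compound for 40 hours; 0% = DMSO only and -100% = 100 µM tamoxifen; nearly all actives have a fitted effect of over 40% in size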
In short: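 Primary rat renal proximal tubule cells (1000/well) were treated with compounds for 40 hr at 37 °C in complete medium. Intracellular ATP was measured by CellTiter-Glo luminescence, and AC50 values came from Hill-equation fits of concentration-response data.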

[15] = Cell Viability - LYMP2-004 (AID 966); settings: LYMP2-004 lymphoblastoid cell viability, qHTS; series mostly up to 92.2 µM; also: nearly all actives have a fitted effect of over 65% in size; also: potency is read from the fitted curve at half-maximal effect;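 as to activity change, negative = cytotoxicity: plate controls were DMSO only for no effect and tetraoctylammonium bromide control for full effect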
In short: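 Human lymphoblastoid cells (2500/well) in complete medium were treated with compounds for 24 hr at 37 C, then intracellular ATP was measured by CellTiter-Glo luminescence. AC50 values came from Hill-equation fits of concentration-response data.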

[16] = Cell Viability - LYMP2-010 (AID 981); settings: LYMP2-010 lymphoblastoid cell viability, qHTS; series mostly up to 92.2 µM; also: nearly all actives have a fitted effect of over 55% in size; also: potency is read from the fitted curve at half-maximal effect
In short: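 Human lymphoblastoid LYMP2-010 cells (2500/well) were preincubated 5 hr at 37 C, then exposed to compounds for 24 hr at 37 C in complete medium. Intracellular ATP was measured by CellTiter-Glo luminescence after 30 min at room temperature; AC50 from Hill-fitted concentration-response.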

[17] = qHTS assay for small molecule agonists of the antioxidant response element (ARE) signaling pathway (AID 651741; active = well fitted activation curve with a large enough effect in the signal ratio; inconclusive = small, poorly fitted or top-dose-only effect, or effect the other way, or a change in a side signal; the % refers to the signal ratio; also: potency is read from the fitted curve at half-maximal effect); settings: HepG2 ARE-bla reporter, beta-lactamase FRET ratio, 16 h; activation: at 96 µM (top of the series)
In short: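 Seeding 2,000 ARE-bla HepG2 cells per well preceded a 5 h incubation at 37 C/5% CO2 and a 16 h compound exposure at 37 C. Beta-lactamase reporter activity was then quantified by fluorescence after 2 h with LiveBLAzer B/G FRET substrate.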

[18] = target: Nuclear receptor ROR-gamma (Homo sapiens) (UniProt P51449); assay: qHTS assay for small molecule antagonists of the retinoid-related orphan receptor gamma (ROR-gamma) signaling pathway (AID 651802); settings: ROR-gamma antagonist cell reporter assay; series mostly up to 92.2 µM
In short: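 CHO cells carrying TET-inducible ROR-gamma and an ROR response element–luciferase reporter were exposed to compound, then induced with doxycycline. After 16hr at 37C, luminescence was read; lower signal indicates antagonism.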

[19] = qHTS assay for small molecule antagonists of the retinoid-related orphan receptor gamma (ROR-gamma) signaling pathway - cell viability counter screen (AID 720652; active = well fitted curve in the direction sought with a large enough effect in the repeat runs; inconclusive = weak or mixed curves; inactive = no such curve, though single readings can be large; an effect the other way counts as inactive or inconclusive;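 also: compound exposure lasted 16 hr before ATP read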; also: potency is read from the fitted curve at half-maximal effect; as to activity change, negative = cytotoxicity: % is scaled to controls: 0 for no effect and ±100 for the full control effect); settings: RORgamma reporter cell line viability counter screen; series mostly up to 92.2 µM
In short: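 Counter screen in CHO cells carrying TET-inducible ROR-gamma and an ROR response element-luciferase reporter; cells plated 5 hr, compound pinned, doxycycline added, then 16 hr at 37 C. Viability read as intracellular ATP by CellTiter-Glo luminescence.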

[20] = qHTS to identify inhibitors of the type 1 interferon - major histocompatibility complex class I in skeletal muscle: primary screen against the NCATS LOPAC collection (AID 1347405); settings: iHSKM muscle cells, IFN-b-induced MHC-I HiBiT luminescence, 24 h; activity change, negative = inhibition: at 45.9 µM (top of the series);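 also: lytic HiBiT luminescence reporting HLA-B protein level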; also: potency is read from the fitted curve at half-maximal effect
In short: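 Immortalized human C25cl48 myoblasts with HiBiT knocked into endogenous HLA-B*08:01 were stimulated with 4.0 ng/ml IFN-beta and given compounds in a 7-point, 1:4.3 titration from 46 uM final; after 24 hrs, lytic HiBiT luminescence was read.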

In the case of `CC(=O)[C@H]1CC[C@H]2[C@@H]3CC=C4C[C@@H](OS(=O)(=O)O)CC[C@]4(C)[C@H]3CC[C@]12C`, the Potency [1] is reported as inconclusive: 0.0126 µM [activator, full curve, poor fit].

For `COc1cc(C(=O)NS(=O)(=O)c2ccccc2C)ccc1Cc1cn(C)c2ccc(NC(=O)OC3CCCC3)cc12`, the Potency [2] was active: 1.56 µM, the Potency [3] was active: 15.8 µM and the Potency [4] was active: 49.4 µM.

In the case of `C[C@@H]1CN(CCCn2c3ccccc3c3ccccc32)C[C@H](C)N1`, the Potency [5] is reported as “inactive”, the Potency [6] is reported as inconclusive: 26.1 µM [cytotoxic, single point] and the Potency [7] is reported as inconclusive: 36.9 µM [cytotoxic, single point]. The Potency [8] was inconclusive: 0.827 µM [cytotoxic, full curve, poor fit], the Potency [9] was inconclusive: 36.9 µM [cytotoxic, partial curve, poor fit] and the Potency [10] was active: 16.5 µM. The Potency [11] was inconclusive: 32.9 µM [cytotoxic, single point] and the Potency [12] was inconclusive: 32.9 µM [cytotoxic, single point].

For `Cc1[nH]c2ccccc2c1CCNCc1ccc(/C=C/C(=O)NO)cc1`, the Potency ([13]; HiBiT) was active: 0.0625 µM.

With `CCC(=O)O[C@]1(C(=O)COC)[C@@H](C)C[C@H]2[C@@H]3CCC4=CC(=O)C=C[C@]4(C)C3(F)[C@@H](O)C[C@@]21C` (some centres undefined) the Potency [6] was “inactive”, the Potency [7] was “inactive” and the Potency [11] was “inactive”.

For `C[C@H]1C[C@H]2[C@@H]3CCC4=CC(=O)C=C[C@]4(C)[C@H]3C(=O)C[C@]2(C)[C@@]1(O)C(=O)CO`, the Potency [8] was active: 2.93 µM, the Potency [9] was inconclusive: 2.33 µM [cytotoxic, full curve] and the Potency [10] was inconclusive: 0.585 µM [cytotoxic, full curve]. For the same molecule, the Potency [12] was inconclusive: 2.93 µM [cytotoxic, full curve].

In the case of `COC(=O)[C@H]1[C@H]2C[C@@H]3c4[nH]c5cc(OC)ccc5c4CCN3C[C@H]2C[C@@H](OC(=O)c2cc(OC)c(OC)c(OC)c2)[C@@H]1OC`, the activity change, negative = cytotoxicity [14] is reported as active: -101%, the Potency [15] is reported as inconclusive: 39.8 µM [cytotoxic, partial curve, poor fit] and the Potency [16] is reported as inconclusive: 50.1 µM [cytotoxic, partial curve, poor fit]. For the same molecule, the Potency [17] was inconclusive: 54.5 µM [activator, partial curve] and inconclusive: 53.1 µM [activator, partial curve], the Potency [18] was inconclusive: 37.6 µM [inhibitor, partial curve, poor fit] and the Potency [19] was inconclusive: 75 µM [cytotoxic, single point]. For the same molecule, the Potency [20] was inconclusive: 35.5 µM [inhibitor, single point].

For `COC1=CC(=O)C[C@@H](C)[C@]12Oc1c(Cl)c(OC)cc(OC)c1C2=O`, the activity change, negative = cytotoxicity [14] was inconclusive: -32.6%, the Potency [17] was inconclusive: 23.7 µM [inhibitor, full curve, poor fit] and the Potency [18] was inconclusive: 1.19 µM [inhibitor, full curve, poor fit]. For the same molecule, the Potency [19] was “inactive”.

With `CC(C)(c1ccc(O)cc1)c1ccc(O)cc1` the Potency [15] was “inactive”, the Potency [16] was “inactive” and the Potency [4] was active: 80.4 µM.

With `CCCCOc1ccc(OCCCN2CCOCC2)cc1` the Potency [5] was “inactive”.

In the case of `CCOc1cc(C(=O)N2CCC(N3CCN(C)CC3)CC2)ccc1Nc1ncc2c(n1)N(C1CCCC1)c1ccccc1C(=O)N2C`, the activity change, negative = inhibition ([13]; Viability, at 45.9 µM (top of the series)) is reported as inactive: -25.1%.

For `CN(C)CCOc1cc(NS(=O)(=O)c2c(Cl)cc(C(F)(F)F)cc2Cl)ccc1Cl`, the Potency [2] was inconclusive: 27.8 µM [inhibitor, partial curve].

In the case of `O=C(O)[C@H](O)[C@@H](O)[C@H](O[C@@H]1O[C@H](CO)[C@H](O)[C@H](O)[C@H]1O)[C@H](O)CO`, the Potency [3] is reported as “inactive”.

For `CCCN1C[C@H](CSC)C[C@@H]2c3cccc4[nH]cc(c34)C[C@H]21`, the Potency [20] was “inactive”.
